# PubChem BioAssay AID743454, Peter MacCallum Cancer Centre – 2014
# Screen: 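Search for knock-downs that restore vorinostat killing in resistant colon cancer cells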 (primary screen)
# Cell system: human HCT116-VR colon cancer cells, selected for vorinostat resistance
# Knock-down reagent: siRNA pool against human genes, 40 nM siRNA pool
# Time to read-out: vorinostat for 24 h, read-out about 72 h after transfection
# Challenge: vorinostat at 2.5 µM final
# Measurement: 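Two measures, CellTiter-Fluor viability and luminescent caspase 3/7 activity, each as fold change against same-plate mock wells, mean of duplicates, then screen-wide robust z-score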
# Scale: viability robust z-score: higher = more viable cells than screen typical; caspase robust z-score: higher = more caspase 3/7 activity than screen typical
# Active means: 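a knock-down is a hit when classed RV1 or RV2 for lowered viability, or CA1 or CA2 for caspase activation; those lethal without drug were dropped; hits were retested singly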
# The whole screen tested about 18,000 reagents; below is a part drawn at random. Of all reagents, 450 (2.5%) got an active call. 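Single biological run; no consistent viability z cut-off exists, so the class columns, not z-scores, define the calls.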 Reagents against one gene are numbered here.
The opening 3 entries as a preview:
Gene,reagent no.,viability hit class,caspase hit class,viability robust z-score,caspase robust z-score,outcome
POP5,1,no change,no change,0.08,-0.38,inactive
TCF15,1,no change,no change,0.73,-0.28,inactive
IL27RA,1,no change,no change,-1.25,-0.22,inactive

Main list, from the first entry:
Gene,reagent no.,viability hit class,caspase hit class,viability robust z-score,caspase robust z-score,outcome
POP5,1,no change,no change,0.08,-0.38,inactive
TCF15,1,no change,no change,0.73,-0.28,inactive
IL27RA,1,no change,no change,-1.25,-0.22,inactive
SLC25A6,1,no change,no change,0.45,0.12,inactive
CASP3,1,no change,no change,0.02,-1.37,inactive
NUMA1,1,no change,no change,-1.66,-0.3,inactive
CCER1,1,no change,no change,0.29,-0.62,inactive
PHOSPHO1,1,no change,no change,0.11,-0.87,inactive
CWC22,1,RV2 (reduced viability),no change,-3.02,-0.64,active
ZNG1F,1,no change,no change,0.26,-0.32,inactive
NFKBIB,1,no change,no change,0.35,1.54,inactive
HES7,1,no change,no change,-0.62,4.22,inactive
SERPINB9,1,no change,no change,-0.88,0.08,inactive
CDKL3,1,no change,no change,-0.05,-0.21,inactive
SLC5A4,1,no change,no change,1.1,-0.44,inactive
DHX33,1,no change,no change,0.18,-0.57,inactive
METRNL,1,no change,CA1 (caspase activation),-1.18,5.37,active
RCBTB1,1,no change,no change,0.92,-0.72,inactive
IAH1,1,no change,no change,-0.64,-0.86,inactive
TBX2,1,no change,no change,0.3,-0.44,inactive
KLHL22,1,no change,no change,1.24,-0.38,inactive
ALG13,1,no change,no change,0.58,-0.53,inactive
ALG13,2,no change,no change,-0.04,-0.16,inactive
PI16,1,no change,no change,0.54,-0.18,inactive
MPC1,1,no change,no change,-0.56,-0.13,inactive
SERPINA4,1,no change,no change,0.29,0.33,inactive
STAG1,1,no change,no change,0.76,-0.61,inactive
LRATD2,1,no change,no change,-1.64,0.24,inactive
B3GALT2,1,no change,CA2 (caspase activation),-0.3,5.22,active
BLTP3A,1,no change,no change,-0.8,0.68,inactive
LMO7,1,no change,no change,0.15,-0.46,inactive
KCNQ1,1,no change,no change,-0.76,0.21,inactive
TMEM37,1,no change,no change,-0.12,0.35,inactive
STRBP,1,no change,no change,-0.4,-0.14,inactive
RAF1,1,no change,no change,-0.88,0.8,inactive
ZCCHC17,1,no change,no change,0.86,0.3,inactive
PLEKHJ1,1,no change,no change,0.53,1.43,inactive
TM9SF3,1,no change,no change,0.99,0.05,inactive
TMPRSS11E,1,no change,no change,0.4,-0.37,inactive
MRM1,1,no change,no change,-2.63,3.71,inactive
STK38,1,no change,no change,-0.53,-0.65,inactive
DNAJA1,1,no change,no change,-1.18,-0.47,inactive
SUMF1,1,no change,no change,-1.57,1.74,inactive
PCDHB2,1,no change,no change,0.89,-0.52,inactive
C1GALT1,1,no change,no change,1.75,-0.03,inactive
OR52K1,1,no change,no change,-0.14,-0.2,inactive
OMP,1,no change,no change,-0.38,5.12,inactive
MAP3K5,1,no change,no change,0.1,-1.11,inactive
DTNA,1,no change,no change,-2.31,0.24,inactive
NIPA1,1,no change,no change,0.1,-0.12,inactive
BAG3,1,no change,no change,-0.06,-0.7,inactive
SSB,1,no change,no change,0.77,-0.21,inactive
RPTOR,1,no change,no change,-0.18,-0.54,inactive
KRT25,1,no change,no change,-1.39,-0.9,inactive
FAM161A,1,no change,no change,-1.69,0.23,inactive
SFXN2,1,no change,no change,-1.51,4.61,inactive
H2BC12,1,no change,no change,0.74,-0.52,inactive
